The values that follow come from PMC7819943, “Rice protein-binding microarrays: a tool to detect cis-acting elements near promoter regions in rice”.

Sequences of proteins named here, by UniProt entry; tags and fusion partners are left off.
UniProt Q0JBA9, entry or part of it: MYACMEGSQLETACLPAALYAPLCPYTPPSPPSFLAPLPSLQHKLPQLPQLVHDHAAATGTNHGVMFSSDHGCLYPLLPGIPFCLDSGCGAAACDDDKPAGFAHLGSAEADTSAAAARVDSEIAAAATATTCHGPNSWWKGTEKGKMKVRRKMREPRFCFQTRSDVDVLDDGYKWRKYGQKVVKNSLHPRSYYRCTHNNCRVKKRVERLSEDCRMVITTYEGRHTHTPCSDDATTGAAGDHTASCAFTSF

Some of the results follow.

The test concerns the target OsWRKY34 (Oryza sativa, UniProt Q0JBA9 1-250). Briefly: protein-binding microarray (RPBM); PBS, 2% BSA, 51.3 ng/ul salmon testes DNA, 50 uM zinc acetate, 200 nM TF, 25 C, 1 h; high values mean tight binding. The settings on record: protein: recombinant; tags: N-terminal polyhistidine and DsRed monomer fusion (pET32a); label: CyDye5-dUTP incorporated in the synthesized complementary strand; 3' TTTTT single-stranded linker to array surface; dsDNA, one strand shown. The procedure, abridged: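 The binding signal is fluorescence intensity per feature, in arbitrary units, read on an Axon 4000B scanner. Polyhistidine- and DsRed-tagged transcription factors (N-terminal fusions) from E. coli BL21-CodonPlus were purified on Ni–NTA and applied at 200 nM for 1 h at 25 °C to a double-stranded, BSA-blocked custom Agilent array in buffer with 50 µM zinc acetate.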
“AGTTTTTTTTTTGTTTGTTTTATCTATGTCCAGTCCATTTCGGAGTCACCTAGTGCAG”: the binding signal is 13400 fluorescence intensity (a.u.).
Under “TTTACTTCTCGTTTGCTCTATACGCTCTAAGGCTGCCTTTCGGAGTCACCTAGTGCAG” stands 9210 ± 695 fluorescence intensity (a.u.).
The result for “CCATCTCTACTTCTCTACTTTATTTCGTGAGAGAGCTTCACGGAGTCACCTAGTGCAG” reads 8380 fluorescence intensity (a.u.); that for “GCAGGTCAAACATTTTTAGCTTTGACCATTAATAGCAAAACGGAGTCACCTAGTGCAG”, 12900 fluorescence intensity (a.u.).
For “GCCACCACCACCGCTCCGCCCGCCGCACCACCCACCGATGCGGAGTCACCTAGTGCAG”, the binding signal was 8170 fluorescence intensity (a.u.).
The result for “TCCACTATGGCCATCCTGATATCTTTGATCGTCTTTTCCACGGAGTCACCTAGTGCAG” reads 17500 fluorescence intensity (a.u.).
The result for “AAACTATCTGCCACTCCTCTCTCTCGTCTCTCTTCACCTCCGGAGTCACCTAGTGCAG” reads 8600 fluorescence intensity (a.u.); that for “GGCTAATTTACGGTTATTGTTGCGGTTATATTTTTAGCATCGGAGTCACCTAGTGCAG”, 9950 fluorescence intensity (a.u.); that for “TCTCCTCTTACAATGTCATTACTTCTCTTCGGTGTTTTGCCGGAGTCACCTAGTGCAG”, 9000 fluorescence intensity (a.u.).
With “ACGTTATTTATTGTTTTAGGTTCAATCTACGAGTTTCTTTCGGAGTCACCTAGTGCAG”, the binding signal was 10700 fluorescence intensity (a.u.).
The result for “GAGCTCTGCTCGTTTCTTGGCGTCTTCTTTCTTCTTCTTCCGGAGTCACCTAGTGCAG” reads 8490 fluorescence intensity (a.u.).
The result for “CCGTATTCTGAACATTTTCTTAATTTCTTATAGCTTGTACCGGAGTCACCTAGTGCAG” reads 10000 fluorescence intensity (a.u.); that for “CACCTCCACCCAGCTGCGTCGCCACTCTTCACCCACCATCCGGAGTCACCTAGTGCAG”, 8080 fluorescence intensity (a.u.); that for “TAATCCTCTGGTTTTTTGCGTTCCCAGATATATAGGTTCCCGGAGTCACCTAGTGCAG”, 9490 fluorescence intensity (a.u.).
Under “ATGCTGCTCCGGACTCGTCTTCCTTGTCGTCGCCTCACGCCGGAGTCACCTAGTGCAG” stands 9000 fluorescence intensity (a.u.); under “CTTCCTTTCGTCATGCGTACAAGCCATCCCCACATCACCACGGAGTCACCTAGTGCAG”, 8790 fluorescence intensity (a.u.).
Regarding “GAACTTATCTGCAATTGCAGTCCTATCAGGCATAAATTATCGGAGTCACCTAGTGCAG”, the binding signal is 8120 fluorescence intensity (a.u.).
The result for “CGCTTTCCTCTGTTTCTCCGCCGCGCTCGTTCGTCGTCTCCGGAGTCACCTAGTGCAG” reads 21400 fluorescence intensity (a.u.); that for “TTCTGCTGGTTTTGGTACCTGAACATCTCCATACCCATATCGGAGTCACCTAGTGCAG”, 13600 fluorescence intensity (a.u.).
The result for “TCCCGTTCTTGTTCACGGTCAACTCATCGTGGCCCACAATCGGAGTCACCTAGTGCAG” reads 9350 fluorescence intensity (a.u.); that for “CCCTCACCGCTCACTGGCTCTCGTCTCTCGCCGCCGCCGCCGGAGTCACCTAGTGCAG”, 12400 fluorescence intensity (a.u.).
Under “AACCCGGCCGCTCATGCATCACAGAACCTTATCCTGTTCGCGGAGTCACCTAGTGCAG” stands 10300 fluorescence intensity (a.u.); under “TAGCGTCGTTGACTTTTGAACACATTTTTATCATTTAAATCGGAGTCACCTAGTGCAG”, 22400 fluorescence intensity (a.u.); under “GACCATAGTGTCTAGTCCAGTCCTCGGAAGTTCGTACTCTCGGAGTCACCTAGTGCAG”, 8420 fluorescence intensity (a.u.).
“CTTCACTAATCACGGGCTTAAACGCATCTTGTTACATTCTCGGAGTCACCTAGTGCAG”: the binding signal is 9840 fluorescence intensity (a.u.).
The result for “CCACCAATATATGCTTTTTCAGCTCGCACCATATGCACTGCGGAGTCACCTAGTGCAG” reads 8340 fluorescence intensity (a.u.); that for “AAAATTCTTGGTCTTCTTGGTCTCGGTTAGTTCGGTTCGACGGAGTCACCTAGTGCAG”, 8110 fluorescence intensity (a.u.); that for “ATTCTCTCTCGCCTCATTGACACTACTGCAACATTATTTTCGGAGTCACCTAGTGCAG”, 12900 fluorescence intensity (a.u.).
The result for “TATGTCTAATATTCCTATGTTTTTCATGTGTGCTAATCAACGGAGTCACCTAGTGCAG” reads 9190 fluorescence intensity (a.u.).
As to “GTTGGTTCCTCTCCGTTATGTTCCTGTGCTAGCTTCTGCCCGGAGTCACCTAGTGCAG”, the binding signal is 11600 fluorescence intensity (a.u.).
Regarding “AATAGTTTGTAGGTGTGGCAATTAAGCGTGAGTTTCGGTCCGGAGTCACCTAGTGCAG”, the binding signal is 8120 fluorescence intensity (a.u.).
Under “GCCCGCCTGTCATTTTATGTACTTTTCGTTGCCGTGTTGGCGGAGTCACCTAGTGCAG” stands 9000 fluorescence intensity (a.u.).
The result for “GCTATTATTTTCTTTCCTACTATAAAGTTCAGTTAGTACACGGAGTCACCTAGTGCAG” reads 10200 fluorescence intensity (a.u.); that for “CCCGCAGCCCGCGCCCGTCTTTCTCGTCCGAAGTCCTCTGCGGAGTCACCTAGTGCAG”, 8030 fluorescence intensity (a.u.).
The result for “GCTTGAGCTCTGGGTTTATTAATTTTTTTTGGGGTTGCTGCGGAGTCACCTAGTGCAG” reads 9220 fluorescence intensity (a.u.).
Turning to “CCGGCTGCCGCTCCACCGCTGTCGCCCACTTCGGCCACTACGGAGTCACCTAGTGCAG”, the binding signal is 8750 fluorescence intensity (a.u.).
The result for “ACGCTTCTCCTGCCTGCCTGCCTGCTGCTGCTGCCGCGCGCGGAGTCACCTAGTGCAG” reads 9240 fluorescence intensity (a.u.).
The result for “CGAGTCTTTTGTGCGGGTGGTTGGGGCGTGGGCGGTGGCGCGGAGTCACCTAGTGCAG” reads 23100 fluorescence intensity (a.u.).
The result for “CGTTGTCGCTTTCCTCCACGTATGGTGTTTTTTCTCCTCCCGGAGTCACCTAGTGCAG” reads 8530 fluorescence intensity (a.u.); that for “CTACAACTCCTGGCTGTTACCCAAGCAAGTTAGCTTTTCTCGGAGTCACCTAGTGCAG”, 9630 fluorescence intensity (a.u.).
For “ACTCTAAGTCATTTTATAATGTATCCATGGTTGGTCAACTCGGAGTCACCTAGTGCAG”, the binding signal was 9620 fluorescence intensity (a.u.).
The result for “TTTTCTTGTTTGATTGACATAATGGGCCCTACATATTTTTCGGAGTCACCTAGTGCAG” reads 8440 fluorescence intensity (a.u.).
